PMC9807647
Positions count from the first letter of the chain named. No constants are given. Whether binding was seen depends on the method and setting. In cells and extracts the contact can be indirect. Some binding calls cover weakened binding; strength is not graded here. Sequences can lack the tags named with a protein.

Chains of the proteins cited; added tags and fusions are not shown.
UniProt Q9Y297: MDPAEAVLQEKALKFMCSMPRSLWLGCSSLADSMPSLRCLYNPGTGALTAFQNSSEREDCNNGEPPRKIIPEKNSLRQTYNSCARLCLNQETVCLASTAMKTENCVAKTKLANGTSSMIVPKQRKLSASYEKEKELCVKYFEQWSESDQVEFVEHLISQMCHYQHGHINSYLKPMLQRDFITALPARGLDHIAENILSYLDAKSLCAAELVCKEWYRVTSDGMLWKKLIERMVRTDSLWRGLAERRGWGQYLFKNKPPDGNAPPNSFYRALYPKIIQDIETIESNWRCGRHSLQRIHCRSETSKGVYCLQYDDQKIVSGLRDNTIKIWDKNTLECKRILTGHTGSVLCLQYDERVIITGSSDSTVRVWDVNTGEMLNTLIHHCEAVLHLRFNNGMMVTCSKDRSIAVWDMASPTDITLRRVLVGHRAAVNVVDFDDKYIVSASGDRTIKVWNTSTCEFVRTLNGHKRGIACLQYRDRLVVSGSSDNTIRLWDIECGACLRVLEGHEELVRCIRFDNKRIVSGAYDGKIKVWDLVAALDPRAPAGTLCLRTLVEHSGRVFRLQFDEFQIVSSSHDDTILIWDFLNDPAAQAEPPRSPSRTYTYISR
UniProt Q93009: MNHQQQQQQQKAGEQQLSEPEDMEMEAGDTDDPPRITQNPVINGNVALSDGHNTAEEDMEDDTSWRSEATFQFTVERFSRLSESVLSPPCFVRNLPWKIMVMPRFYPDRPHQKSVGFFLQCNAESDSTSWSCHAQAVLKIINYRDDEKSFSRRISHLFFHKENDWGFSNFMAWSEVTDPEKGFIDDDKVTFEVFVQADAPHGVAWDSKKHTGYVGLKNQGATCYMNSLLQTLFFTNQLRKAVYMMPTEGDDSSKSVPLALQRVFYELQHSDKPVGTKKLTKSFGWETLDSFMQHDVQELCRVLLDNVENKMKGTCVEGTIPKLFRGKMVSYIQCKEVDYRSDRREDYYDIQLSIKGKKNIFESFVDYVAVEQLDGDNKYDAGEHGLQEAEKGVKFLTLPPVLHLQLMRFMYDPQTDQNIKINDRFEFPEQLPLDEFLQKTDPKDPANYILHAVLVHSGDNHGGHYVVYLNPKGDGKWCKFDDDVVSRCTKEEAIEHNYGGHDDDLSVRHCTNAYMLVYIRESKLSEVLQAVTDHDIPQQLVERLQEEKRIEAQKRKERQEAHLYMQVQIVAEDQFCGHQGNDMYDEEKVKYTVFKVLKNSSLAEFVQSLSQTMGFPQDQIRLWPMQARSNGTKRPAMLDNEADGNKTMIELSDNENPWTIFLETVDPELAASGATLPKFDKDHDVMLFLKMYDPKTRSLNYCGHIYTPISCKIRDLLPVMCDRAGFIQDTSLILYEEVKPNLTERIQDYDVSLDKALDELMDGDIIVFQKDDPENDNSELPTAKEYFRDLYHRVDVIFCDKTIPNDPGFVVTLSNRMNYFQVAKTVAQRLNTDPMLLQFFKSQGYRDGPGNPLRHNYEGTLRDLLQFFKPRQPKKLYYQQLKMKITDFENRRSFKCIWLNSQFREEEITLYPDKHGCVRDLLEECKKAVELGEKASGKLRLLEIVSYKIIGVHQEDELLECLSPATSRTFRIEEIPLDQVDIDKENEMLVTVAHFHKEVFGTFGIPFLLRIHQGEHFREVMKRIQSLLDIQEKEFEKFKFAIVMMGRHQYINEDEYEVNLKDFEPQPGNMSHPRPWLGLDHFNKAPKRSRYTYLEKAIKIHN

Columns and labels:
[1] = biological target: T1, His-UHRF1 (wild-type Ubiquitin-like containing PHD Ring Finger 1) (UniProt Q96T88); assay: co-IP; HEK-293T co-transfected with His-UHRF1 (WT or T210A) and Flag-myr-AKT1; IP with anti-His antibody, USP7 and BTRC detected by western blotting; treatments: 10 μM MK2206 for 24 h, AKT1 knockdown
T1 sequence: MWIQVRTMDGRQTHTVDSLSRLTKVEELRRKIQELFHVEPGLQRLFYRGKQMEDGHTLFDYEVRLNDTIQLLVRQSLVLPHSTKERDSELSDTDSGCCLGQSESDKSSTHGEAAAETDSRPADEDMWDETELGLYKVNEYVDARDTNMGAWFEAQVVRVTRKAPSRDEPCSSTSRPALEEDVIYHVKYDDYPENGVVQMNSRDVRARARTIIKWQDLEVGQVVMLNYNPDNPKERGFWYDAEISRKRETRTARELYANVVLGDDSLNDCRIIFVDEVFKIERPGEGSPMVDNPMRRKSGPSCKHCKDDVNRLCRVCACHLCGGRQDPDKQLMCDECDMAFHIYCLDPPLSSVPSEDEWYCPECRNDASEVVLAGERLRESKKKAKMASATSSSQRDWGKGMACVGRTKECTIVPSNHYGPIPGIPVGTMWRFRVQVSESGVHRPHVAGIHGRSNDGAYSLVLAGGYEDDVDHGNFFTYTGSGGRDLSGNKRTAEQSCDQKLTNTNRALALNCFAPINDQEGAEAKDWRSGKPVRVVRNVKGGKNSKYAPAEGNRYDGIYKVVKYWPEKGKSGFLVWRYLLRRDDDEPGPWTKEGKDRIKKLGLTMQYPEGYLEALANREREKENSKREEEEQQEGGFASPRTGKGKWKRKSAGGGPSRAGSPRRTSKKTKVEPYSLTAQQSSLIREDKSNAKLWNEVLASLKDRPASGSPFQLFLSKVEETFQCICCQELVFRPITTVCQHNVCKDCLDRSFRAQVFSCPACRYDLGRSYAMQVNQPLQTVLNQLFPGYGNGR

[2] = biological target: T2, His-UHRF1-T210A (UniProt Q96T88); assay: as above
T2 sequence: T1 sequence with T210A

Row | Substance | binding [1] | binding [2]
1 | E3 ubiquitin protein ligase BTRC (from UniProt Q9Y297 1-605) (enzyme) | binds | binds
2 | deubiquitinase USP7 (from UniProt Q93009 1-1102) (enzyme) | binds | binds
